Experiment [1] deals with T1, nYFP-VAP27-1 (Arabidopsis) (UniProt Q8VZ95).
T1 sequence: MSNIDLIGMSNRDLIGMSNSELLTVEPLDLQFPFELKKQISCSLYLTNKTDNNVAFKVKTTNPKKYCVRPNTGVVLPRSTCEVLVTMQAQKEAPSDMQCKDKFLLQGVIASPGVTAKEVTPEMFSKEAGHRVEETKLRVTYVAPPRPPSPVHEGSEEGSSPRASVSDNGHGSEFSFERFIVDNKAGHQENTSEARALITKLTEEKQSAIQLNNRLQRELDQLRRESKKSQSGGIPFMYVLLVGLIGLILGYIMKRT
Briefly: split reporter.

In experiment [2] the target is GFP-TraB1a (transgenic Arabidopsis) (Arabidopsis). Kind of experiment: co-IP.

Results are given in words; binding and its absence hold for the method and conditions named. Binding seen in cells or lysates may run through a third protein. A result given as binding can be weak or reduced; the word gives no strength. For some assays here: Where a sequence is shown, tags or fusion partners need not be part of it.

As for cYFP-TraB1 (Arabidopsis), the binding result in experiment [1] was “binds”.

B1: VAP27-1-RFP (transgenic Arabidopsis) (protein, UniProt Q8VZ95 1-256)
chain: MSNIDLIGMSNRDLIGMSNSELLTVEPLDLQFPFELKKQISCSLYLTNKTDNNVAFKVKTTNPKKYCVRPNTGVVLPRSTCEVLVTMQAQKEAPSDMQCKDKFLLQGVIASPGVTAKEVTPEMFSKEAGHRVEETKLRVTYVAPPRPPSPVHEGSEEGSSPRASVSDNGHGSEFSFERFIVDNKAGHQENTSEARALITKLTEEKQSAIQLNNRLQRELDQLRRESKKSQSGGIPFMYVLLVGLIGLILGYIMKRT
For the molecule B1, in experiment [2], the binding entry is given as “binds”.

The record behind these values is article doi:10.1101/2022.02.25.481886.
